The source of these data is article PMC2897766.

Sequences of proteins named here, by UniProt entry; tags and fusion partners are left off. Residues count along the entry.
UniProt P16474, residues 43-682: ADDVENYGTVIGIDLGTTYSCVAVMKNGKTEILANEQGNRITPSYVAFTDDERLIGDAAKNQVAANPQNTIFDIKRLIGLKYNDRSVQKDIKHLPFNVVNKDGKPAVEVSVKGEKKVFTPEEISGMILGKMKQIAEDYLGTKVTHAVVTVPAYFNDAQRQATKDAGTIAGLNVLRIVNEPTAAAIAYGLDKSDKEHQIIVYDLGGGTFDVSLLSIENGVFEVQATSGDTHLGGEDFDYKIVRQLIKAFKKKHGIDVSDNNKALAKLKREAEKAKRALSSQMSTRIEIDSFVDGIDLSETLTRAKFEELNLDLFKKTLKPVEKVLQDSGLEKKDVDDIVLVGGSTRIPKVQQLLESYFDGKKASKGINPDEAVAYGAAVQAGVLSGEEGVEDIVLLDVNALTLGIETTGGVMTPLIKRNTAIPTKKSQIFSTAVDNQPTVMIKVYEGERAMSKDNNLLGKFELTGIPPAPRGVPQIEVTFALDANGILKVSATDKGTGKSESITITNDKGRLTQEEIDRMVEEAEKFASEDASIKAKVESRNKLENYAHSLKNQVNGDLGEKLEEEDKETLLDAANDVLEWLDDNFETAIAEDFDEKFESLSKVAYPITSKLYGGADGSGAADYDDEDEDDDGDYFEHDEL

For this assay, the target named is T1, Ire1, wild type, C-terminally HA-tagged (yeast) (UniProt P32361).
T1 sequence: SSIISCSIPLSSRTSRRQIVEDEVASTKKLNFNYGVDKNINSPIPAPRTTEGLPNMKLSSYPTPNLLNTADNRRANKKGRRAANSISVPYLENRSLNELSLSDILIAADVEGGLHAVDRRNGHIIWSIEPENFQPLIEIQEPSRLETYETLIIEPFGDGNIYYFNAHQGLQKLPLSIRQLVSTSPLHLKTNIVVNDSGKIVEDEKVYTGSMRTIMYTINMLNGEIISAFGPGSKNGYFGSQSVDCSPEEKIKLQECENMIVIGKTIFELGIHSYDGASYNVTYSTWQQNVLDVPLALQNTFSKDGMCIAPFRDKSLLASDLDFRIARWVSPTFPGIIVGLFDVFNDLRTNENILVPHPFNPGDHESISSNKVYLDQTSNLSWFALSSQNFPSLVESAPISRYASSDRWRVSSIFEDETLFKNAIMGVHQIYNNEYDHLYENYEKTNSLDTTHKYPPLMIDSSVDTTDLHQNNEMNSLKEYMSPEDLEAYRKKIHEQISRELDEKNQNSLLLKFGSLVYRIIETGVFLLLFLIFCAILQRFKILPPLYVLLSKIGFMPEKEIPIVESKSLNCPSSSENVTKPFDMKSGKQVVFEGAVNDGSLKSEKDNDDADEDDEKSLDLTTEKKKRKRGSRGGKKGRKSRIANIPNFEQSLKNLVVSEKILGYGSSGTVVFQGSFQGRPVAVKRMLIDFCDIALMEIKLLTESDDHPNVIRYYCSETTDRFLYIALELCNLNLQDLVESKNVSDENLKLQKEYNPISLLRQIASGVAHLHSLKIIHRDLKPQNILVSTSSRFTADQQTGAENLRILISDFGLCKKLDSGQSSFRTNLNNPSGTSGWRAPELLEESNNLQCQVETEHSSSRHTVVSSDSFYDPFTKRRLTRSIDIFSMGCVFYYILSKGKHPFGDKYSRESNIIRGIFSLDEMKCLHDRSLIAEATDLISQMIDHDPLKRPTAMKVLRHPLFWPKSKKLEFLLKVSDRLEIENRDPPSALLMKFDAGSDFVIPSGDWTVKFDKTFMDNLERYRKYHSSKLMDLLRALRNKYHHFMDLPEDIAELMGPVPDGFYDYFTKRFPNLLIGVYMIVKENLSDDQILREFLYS
As to the kind of experiment: co-IP; HA-tagged Ire1 or Ire1^bipless precipitated from yeast lysate with anti-HA agarose beads, 2 h at 4°C, IP buffer (50 mM Tris-HCl pH 8.0, 150 mM NaCl, 1% Triton X-100); blot with anti-HA and anti-Kar2; cells untreated, treated with 5 mM DTT for 1 h, or sampled after DTT washout.

No constants are given. Whether binding was seen depends on the method and setting. Binding seen in cells or lysates may run through a third protein. Some binding calls cover weakened binding; strength is not graded here. Tags and fused reporters may be left off the sequences shown.

As for “BiP (Kar2 in yeast) (from UniProt P16474 43-682)”, the binding entry is listed as “binds”.
